Measured values: the supplement of paper PMC10663445
Structures can show the parent of a compound that is named as a salt. Some of the results follow. Single values are uncertain, as repeats are few or missing.

Tested on: hsa-miR-132-3p
Test: miR-132-3p level in NGN2-iNs after compound treatment (TMM-normalised, ComBat batch-corrected) (batch-corrected normalised expression (arbitrary units)); higher = higher miR-132-3p expression
Conditions: 10 µM; 24 h; human iPSC-derived NGN2 neurons (BR43)

Row | SMILES | miR-132-3p level in NGN2-iNs
1 | O=S(=O)(O)c1cc(O)ccc1O [Ethamsylate] | -0.496
2 | COc1ccc(F)c(F)c1C(=O)c1cnc(NC2CCN(S(C)(=O)=O)CC2)nc1N | -0.0741
3 | CCCCC(F)(F)[C@@]1(O)CC[C@H]2[C@@H](CC(=O)[C@@H]2CCCCCCC(=O)O)O1 [Lubiprostone] | -1.19
4 | CCOC(=O)[C@H](CCc1ccccc1)N[C@H]1CS[C@H](c2cccs2)CN(CC(=O)O)C1=O [Temocapril HCl] | 0.0607
5 | CC(NC(=O)C(O)c1cc(F)cc(F)c1)C(=O)NC1C(=O)N(C)c2ccccc2-c2ccccc21 (centres undefined) | -0.795
6 | CN(C)c1nc(N(C)C)nc(N(C)C)n1 [Altretamine] | 0.0364
7 | COc1cc2c(cc1-c1c(C)noc1C)ncc1[nH]c(=O)n([C@H](C)c3ccccn3)c12 | 0.893
8 | Nc1nc2n[nH]nc2c(=O)[nH]1 [Azaguanine-8] | -0.483
9 | O=C(O)c1cc(-c2ccccc2)nc2ccccc12 [Cinchophen] | 0.52
10 | CC(=O)O[C@]1(C(C)=O)CC[C@H]2[C@@H]3C[C@H](C)C4=CC(=O)CC[C@]4(C)[C@H]3CC[C@@]21C [Medroxyprogesterone acetate] | -0.733
11 | Cn1c(=O)cc(N2CCCC(N)C2)n(Cc2ccccc2C#N)c1=O (centres undefined) [Alogliptin(SYK-322)benzoate] | 0.224
12 | C[C@H]1C[C@@H]2[C@H]([C@@H](O)C[C@@]3(C)[C@H]2CC[C@]3(O)C(=O)CO)[C@@]2(C)C=CC(=O)C=C12 [Methylprednisolone] | -0.346
13 | COc1ccccc1OCC(O)CN1CCN(CC(=O)Nc2c(C)cccc2C)CC1 (centres undefined) [Ranolazine] | -0.109
14 | COc1ccccc1OCC(O)CN1CCN(CC(=O)Nc2c(C)cccc2C)CC1 (centres undefined) [Ranolazine 2HCl] | 0.461
15 | COc1cc([C@@H]2c3cc4c(cc3[C@@H](O[C@@H]3O[C@@H]5CO[C@@H](C)O[C@H]5[C@H](O)[C@H]3O)[C@H]3COC(=O)[C@H]23)OCO4)cc(OC)c1O [Etoposide] | 1.47
16 | CCCNCC(O)COc1ccccc1C(=O)CCc1ccccc1 (centres undefined) [Propafenone HCl] | -0.751
17 | NC(=O)C(c1ccccc1)(c1ccccc1)[C@@H]1CCN(CCc2ccc3c(c2)CCO3)C1 [Darifenacin HBr] | -0.285
18 | COc1ccc(S(=O)(=O)N(C(C)=O)c2ccccc2/C=C/c2cc[n+]([O-])cc2)cc1 | 1.31
19 | Cc1c(F)cc(C(=O)NC2CC2)cc1-c1ccc(C(=O)NCC(C)(C)C)cn1 | 1.14
20 | CC(C)c1cc(-c2ccc(F)c3ccccc23)nc(N)n1 | 0.301
21 | O=C(NOC[C@H](O)CO)c1ccc(F)c(F)c1Nc1ccc(I)cc1F | -0.136
22 | Cc1cc(C)c(/C=C2\C(=O)Nc3ccccc32)[nH]1 [Semaxanib (SU5416)] | 0.0616
23 | O=c1cc[nH]c(=S)[nH]1 [2-Thiouracil] | -0.884
24 | Cc1cccc(C#Cc2ccccc2)n1 | -0.245
25 | CC(C)(C)c1ccc(-c2nc3ccccc3[nH]2)cc1 | -0.389

Row | SMILES | miR-132-3p level in NGN2-iNs
26 | O=C(/C=C/c1ccc(CN(CCO)CCc2c[nH]c3ccccc23)cc1)NO [Dacinostat (LAQ824)] | 0.591
27 | CN1CCN(CCOc2cc(OC3CCOCC3)c3c(Nc4c(Cl)ccc5c4OCO5)ncnc3c2)CC1 [Saracatinib (AZD0530)] | -2.85
28 | CC1Cc2ccccc2N1NC(=O)c1ccc(Cl)c(S(N)(=O)=O)c1 (centres undefined) [Indapamide] | -0.0302
29 | C=CC(=O)Nc1ccc2ncnc(Nc3cccc(Br)c3)c2c1 | 0.667
30 | CCC(=O)c1c(O)cc(O)cc1O [Flopropione] | -0.16
31 | CCN=C1N[C@@H]2[C@@H](O)[C@H](O)[C@@H](CO)O[C@@H]2S1 [Thiamet G] | 0.994
32 | CCCCCCCCCCCCCCCC(=O)O[C@@H]1[C@@H](O)[C@@H](O)[C@@H]([C@H](NC(=O)[C@@H]2C[C@@H](CCC)CN2C)[C@H](C)Cl)O[C@@H]1SC [Clindamycin palmitate HCl] | -0.584
33 | C[C@@H]1C[C@H]2[C@@H]3CCC4=CC(=O)C=C[C@]4(C)[C@@]3(F)[C@@H](O)C[C@]2(C)[C@@]1(O)C(=O)CO [Dexamethasone (DHAP)] | 1.14
34 | CC1(C)O[C@@H]2C[C@H]3[C@@H]4CCC5=CC(=O)C=C[C@]5(C)[C@@]4(F)[C@@H](O)C[C@]3(C)[C@]2(C(=O)CO)O1 [Triamcinolone Acetonide] | 0.678
35 | O=C(O)CCCc1ccccc1 [Sodium Phenylbutyrate] | -0.348
36 | COc1ccccc1S(=O)(=O)Nc1ccc2c(c1)CN(C)C(=O)N2 | -0.765
37 | FC(F)c1nc2ccccc2n1-c1nc(N2CCOCC2)nc(N2CCOCC2)n1 | 0.236
38 | Cc1nnc(NS(=O)(=O)c2ccc(N)cc2)s1 [Sulfamethizole] | -0.715
39 | CNC(=O)[C@H](Cc1c[nH]c2ccccc12)NC(=O)[C@@H](CC(=O)NO)CC(C)C [Ilomastat] | -0.944
40 | C[C@H]1C[C@H]2[C@@H]3CCC4=CC(=O)C=C[C@]4(C)[C@@]3(F)[C@@H](O)C[C@]2(C)[C@@]1(O)C(=O)CO [Betamethasone] | 0.197
41 | Oc1ccc(OCc2ccccc2)cc1 [Monobenzone] | -0.0882
42 | Cc1cc(Nc2ncnc3ccc(-c4ccc(CNCCS(C)(=O)=O)o4)cc23)ccc1Oc1ccn2ncnc2c1 [HER2-Inhibitor-1] | 0.809
43 | Cc1ccc(Cl)c(Nc2ccccc2C(=O)O)c1Cl [Meclofenamate Sodium] | -1.31
44 | O=C(NCCO[N+](=O)[O-])c1cccnc1 [Nicorandil] | 0.965
45 | O=C1Nc2ccc(I)cc2C1=Cc1cc(Br)c(O)c(Br)c1 | -0.478
46 | CCN1CCN(C(=O)N[C@@H](C(=O)N[C@@H]2C(=O)N3C(C(=O)O)=C(CSc4nnnn4C)CS[C@H]23)c2ccc(O)cc2)C(=O)C1=O [Cefoperazone] | -0.215
47 | CCOc1nc2cccc(C(=O)O)c2n1Cc1ccc(-c2ccccc2-c2noc(=O)[nH]2)cc1 [Azilsartan] | 0.695
48 | COCCOC(=O)C1=C(C)NC(C)=C(C(=O)OC/C=C/c2ccccc2)C1c1cccc([N+](=O)[O-])c1 (centres undefined) [Cilnidipine] | -1.39
49 | Cc1cc([C@@H](C)Nc2ccccc2C(=O)O)c2nc(N3CCOCC3)cc(=O)n2c1 | 0.376

Four entries from above, set out differently:
Row	SMILES	miR-132-3p level in NGN2-iNs
28	CC1Cc2ccccc2N1NC(=O)c1ccc(Cl)c(S(N)(=O)=O)c1 (centres undefined) [Indapamide]	-0.0302
38	Cc1nnc(NS(=O)(=O)c2ccc(N)cc2)s1 [Sulfamethizole]	-0.715
39	CNC(=O)[C@H](Cc1c[nH]c2ccccc12)NC(=O)[C@@H](CC(=O)NO)CC(C)C [Ilomastat]	-0.944
49	Cc1cc([C@@H](C)Nc2ccccc2C(=O)O)c2nc(N3CCOCC3)cc(=O)n2c1	0.376
